{"sequences": {"note": "Protein sequences, listed by entry. Tags and fused reporters are not part of them.", "UniProt Q7TMB8": "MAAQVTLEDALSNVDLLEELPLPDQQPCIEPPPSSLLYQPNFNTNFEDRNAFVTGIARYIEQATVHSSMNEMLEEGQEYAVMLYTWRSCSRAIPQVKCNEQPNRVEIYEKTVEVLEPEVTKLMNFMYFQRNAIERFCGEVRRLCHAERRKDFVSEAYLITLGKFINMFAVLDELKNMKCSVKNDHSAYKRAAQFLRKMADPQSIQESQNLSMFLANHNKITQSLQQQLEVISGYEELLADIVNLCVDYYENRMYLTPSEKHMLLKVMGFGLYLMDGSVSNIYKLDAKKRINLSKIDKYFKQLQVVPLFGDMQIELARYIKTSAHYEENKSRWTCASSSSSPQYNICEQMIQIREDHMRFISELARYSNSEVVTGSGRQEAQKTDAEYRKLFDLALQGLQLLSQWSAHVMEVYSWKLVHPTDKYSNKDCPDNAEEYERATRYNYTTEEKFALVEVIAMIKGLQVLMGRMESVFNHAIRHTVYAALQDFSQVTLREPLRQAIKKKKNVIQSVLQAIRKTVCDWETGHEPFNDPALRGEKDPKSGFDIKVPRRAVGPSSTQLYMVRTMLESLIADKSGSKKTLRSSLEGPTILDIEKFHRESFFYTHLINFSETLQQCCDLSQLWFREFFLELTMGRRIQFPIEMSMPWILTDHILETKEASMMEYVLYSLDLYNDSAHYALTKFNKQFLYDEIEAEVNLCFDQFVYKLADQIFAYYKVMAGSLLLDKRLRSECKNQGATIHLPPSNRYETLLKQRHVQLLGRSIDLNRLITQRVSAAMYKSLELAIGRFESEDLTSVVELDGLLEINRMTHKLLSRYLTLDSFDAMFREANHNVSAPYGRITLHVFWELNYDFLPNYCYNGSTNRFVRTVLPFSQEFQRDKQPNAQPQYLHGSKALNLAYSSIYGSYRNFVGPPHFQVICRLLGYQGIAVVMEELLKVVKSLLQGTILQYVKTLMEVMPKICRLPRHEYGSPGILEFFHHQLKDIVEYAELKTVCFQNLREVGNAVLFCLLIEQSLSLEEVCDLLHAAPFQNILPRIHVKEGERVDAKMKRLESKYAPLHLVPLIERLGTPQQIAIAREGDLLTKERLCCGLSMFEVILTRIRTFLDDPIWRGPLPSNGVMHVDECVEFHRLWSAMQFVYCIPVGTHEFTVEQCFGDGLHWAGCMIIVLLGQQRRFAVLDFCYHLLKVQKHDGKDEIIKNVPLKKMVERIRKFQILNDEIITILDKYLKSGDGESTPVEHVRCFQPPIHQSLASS"}, "source": "paper PMC9511706", "binders": {"B1": {"name": "Hem1 (protein, UniProt Q8K1X4 1-1134)", "chain": "MSLTSAYQLKLAEKLTILNDRGQGVLIRMYNIKKTCSDSKSKPPFLLEKSMESCLKYINKKFPNIDVRNSTQHLGPVHREKAEIIRFLTNYYQSFVDVMEFRDHVYELLNTIDACQCHFDINLNFDFTRSYLDLIVTYTSVILLLSRIEDRRILIGMYNCAHEMLHGHSDPSFARLGQMVLEYDHPLKKLTEEFGPHTKAVSGALLSLHFLFVRRNQGAEQWRSAQLLSLISSPPAMINPANSDTMACEYLSVEVMERWIIIGFLLCHGCLNSNSQCQKLWKLCLEGSLYITLIREDVLQVHKVTEDLFSSLKGYSKRVADIKESKEHAITNSGQFHCQRRQFLRTAVKELETVLNDEPGLLGPKALFAFMALSFIRDEVTWLVRHTENVTKTKTPEDYADSSIAELLFLLEEIRALVRRHIKVIQQYHLQYLARFDVLVLSDIIQNLSVCPEEESVIMSSFVSILSSLNLKQVDNEEKFDFSGLRLDWFRLQAYTSVSKAPLHLHENPDLAKVMNLIIFHSQMLDSVEKMLVETSDLSTFCFHLRTFEKMFATTLEEPTMLRYTIAFPLICAHFVHCVHEMCPEEYPHLKNHGLHHCNSFLEDLAKQTSNCVLEICAEQRNLNEQLLPKHCATTISKAKNKKSMKQRQAPRKGEPERDKPGAESHRKNRSLVTNMDKLHLNLTELALAMNHVHSFSVFEHTIFPSEYLSSHLEARLNRAIVTLAGYNATTQEILRPSELLAGVKAYISFIQSLAQFLGADASRIVRNALLQQTQPLDSSGEQTVTTLYTNWYLESLLRQASSGAIVLSPAMQAFISLPRDGEQNFSAEEFSDISEMRALAEILGPYGMKFLSENLMWHVTSQIVELKKLVVENMDILVQIRSNFSKPELMASLLPQLTGAENVLKRMTIIGVILSFRAMAQEGLQEVFSAHCPFLMGPIECLKEFVTPDTDIKVTLSVFELACAAGVSCDIDPALVAAIANLKADNSSPEEEYKVACLLLIFLAVSLPLLATDPSSFFSIEKDGYNNNIHCLTKAIIQVSAALFTLYNKNIETHLKEFLVVASVSLLQLGQETDKLKTRNRESISLLMRLVVEESPFLTLDMLESCFPYVLLRNAYREVSRAFYLNRLPASSH"}}, "target": "EGFP-tagged Sra1 (murine) (UniProt Q7TMB8)", "assay": "co-IP; GFP-TrapA beads precipitate EGFP-tagged Sra1 (EGFP alone as control) from lysates of transfected B16-F1 wild-type or Nap1 KO clone 21 cells; IP buffer 140 mM KCl, 50 mM Tris-HCl pH 7.4, 50 mM NaF, 10 mM Na4P2O7, 2 mM MgCl2, 1% Triton-X100; 1 h at 4°C; endogenous WRC subunits detected by western …", "note": "These are yes or no findings as the source states them, for the method shown. In cells and extracts the contact can be indirect. Some results given as binding are weak or reduced against the parent protein; the word gives no strength.", "data": [{"binder": "B1", "values": [{"measurement": "binding", "value": "binds"}]}]}
